These results are taken from patent US20210269539A1.

No constants are given. Whether binding was seen depends on the method and setting. Some results given as binding are weak or reduced against the parent protein; the word gives no strength. Where a sequence is shown, tags or fusion partners need not be part of it.

Assay [1] deals with T1, human OX40-6his (human) (UniProt P43489).
T1 sequence: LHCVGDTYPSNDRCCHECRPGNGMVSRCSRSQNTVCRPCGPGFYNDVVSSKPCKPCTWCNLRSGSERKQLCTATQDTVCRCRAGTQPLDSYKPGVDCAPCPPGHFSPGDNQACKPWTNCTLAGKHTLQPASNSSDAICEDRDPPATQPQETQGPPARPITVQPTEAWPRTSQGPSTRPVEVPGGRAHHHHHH
The assay is described as follows: PK ELISA, human OX40-6his coated, antibody from cynomolgus monkey serum. In general terms: In an ELISA, binding on a coated surface is turned into a signal by an enzyme label.

For assay [2], the target named is T1, human OX40-6his (human). The assay is described as follows: PK ELISA, human OX40-6his coated, antibody from mouse serum.

B1: MT01-C1(G2) (antibody, human IgG2, kappa)
heavy: EVQLVQSGAEVKKPGESLKISCKASGYTFTSYVMHWLRQMPGKGLEWMGYINPYNDGTKYNEKFKGQVTISSDKSISTAYLQWSSLKASDTAMYYCANYYGSKFAMDYWGQGTMVTVSSASTKGPSVFPLAPCSRSTSESTAALGCLVKDYFPEPVTVSWNSGALTSGVHTFPAVLQSSGLYSLSSVVTVPSSNFGTQTYTCNVDHKPSNTKVDKTVERKCCVECPPCPAPPVAGPSVFLFPPKPKDTLMISRTPEVTCVVVDVSHEDPEVQFNWYVDGVEVHNAKTKPREEQFNSTFRVVSVLTVVHQDWLNGKEYKCKVSNKGLPAPIEKTISKTKGQPREPQVYTLPPSREEMTKNQVSLTCLVKGFYPSDIAVEWESNGQPENNYKTTPPMLDSDGSFFLYSKLTVDKSRWQQGNVFSCSVMHEALHNHYTQKSLSLSPGK
light: DIQMTQSPSSVSASVGDRVTITCRASQDISNYLSWYQQKPGGAVKLLIYYTSRLHSGVPSRFSGSGSGTDYTLTISSLQPEDFATYFCQQGITLPWTFGQGTKVEIKRTVAAPSVFIFPPSDEQLKSGTASVVCLLNNFYPREAKVQWKVDNALQSGNSQESVTEQDSKDSTYSLSSTLTLSKADYEKHKVYACEVTHQGLSSPVTKSFNRGEC
With B1, the binding entry with human OX40-6his (human) [1] and with human OX40-6his (human) [2] was “binds” in each case.
